Our source for the binding values is article PMC6734172.

Chains of the proteins cited; added tags and fusions are not shown.
UniProt Q9ULZ3: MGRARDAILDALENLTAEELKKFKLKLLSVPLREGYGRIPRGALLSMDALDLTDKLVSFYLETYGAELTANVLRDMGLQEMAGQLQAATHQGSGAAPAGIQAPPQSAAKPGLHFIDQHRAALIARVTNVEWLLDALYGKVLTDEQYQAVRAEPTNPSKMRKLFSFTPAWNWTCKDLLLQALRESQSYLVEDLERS

The target of experiment [1] is ASC (apoptosis associated speck-like protein containing caspase recruitment domain [CARD]) (human (endogenous in THP-1)) (UniProt Q9ULZ3). In words: co-IP; 500 ug cytoplasmic extract (RIPA buffer) of THP-1 derived macrophages infected with E. coli CFT073 (MOI 1:5, 6 h); 1 ug anti-ASC antibody and Protein A-Sepharose 4B beads overnight at 4 °C; washed thrice with RIPA buffer; blots for NLRP3, NLRC4 and NAIP.

Experiment [2] shares this target. In words: co-IP; as a1, but cytoplasmic extract of resting (mock, no CFT073) THP-1 derived macrophages; anti-ASC antibody and Protein A-Sepharose 4B beads overnight at 4 °C; blots for NLRP3, NLRC4 and NAIP.

No constants are given. Whether binding was seen depends on the method and setting. Binding seen in cells or lysates may run through a third protein. Some binding calls cover weakened binding; strength is not graded here.

Turning to NLRC4 (from UniProt Q9NPP4-1 1-1024), the binding entry was “binds” in experiment [1] and “binds weakly” in experiment [2].

B1: NAIP (NLR family, apoptosis inhibitory protein) (protein, UniProt Q13075-1 1-1403)
chain: MATQQKASDERISQFDHNLLPELSALLGLDAVQLAKELEEEEQKERAKMQKGYNSQMRSEAKRLKTFVTYEPYSSWIPQEMAAAGFYFTGVKSGIQCFCCSLILFGAGLTRLPIEDHKRFHPDCGFLLNKDVGNIAKYDIRVKNLKSRLRGGKMRYQEEEARLASFRNWPFYVQGISPCVLSEAGFVFTGKQDTVQCFSCGGCLGNWEEGDDPWKEHAKWFPKCEFLRSKKSSEEITQYIQSYKGFVDITGEHFVNSWVQRELPMASAYCNDSIFAYEELRLDSFKDWPRESAVGVAALAKAGLFYTGIKDIVQCFSCGGCLEKWQEGDDPLDDHTRCFPNCPFLQNMKSSAEVTPDLQSRGELCELLETTSESNLEDSIAVGPIVPEMAQGEAQWFQEAKNLNEQLRAAYTSASFRHMSLLDISSDLATDHLLGCDLSIASKHISKPVQEPLVLPEVFGNLNSVMCVEGEAGSGKTVLLKKIAFLWASGCCPLLNRFQLVFYLSLSSTRPDEGLASIICDQLLEKEGSVTEMCVRNIIQQLKNQVLFLLDDYKEICSIPQVIGKLIQKNHLSRTCLLIAVRTNRARDIRRYLETILEIKAFPFYNTVCILRKLFSHNMTRLRKFMVYFGKNQSLQKIQKTPLFVAAICAHWFQYPFDPSFDDVAVFKSYMERLSLRNKATAEILKATVSSCGELALKGFFSCCFEFNDDDLAEAGVDEDEDLTMCLMSKFTAQRLRPFYRFLSPAFQEFLAGMRLIELLDSDRQEHQDLGLYHLKQINSPMMTVSAYNNFLNYVSSLPSTKAGPKIVSHLLHLVDNKESLENISENDDYLKHQPEISLQMQLLRGLWQICPQAYFSMVSEHLLVLALKTAYQSNTVAACSPFVLQFLQGRTLTLGALNLQYFFDHPESLSLLRSIHFPIRGNKTSPRAHFSVLETCFDKSQVPTIDQDYASAFEPMNEWERNLAEKEDNVKSYMDMQRRASPDLSTGYWKLSPKQYKIPCLEVDVNDIDVVGQDMLEILMTVFSASQRIELHLNHSRGFIESIRPALELSKASVTKCSISKLELSAAEQELLLTLPSLESLEVSGTIQSQDQIFPNLDKFLCLKELSVDLEGNINVFSVIPEEFPNFHHMEKLLIQISAEYDPSKLVKLIQNSPNLHVFHLKCNFFSDFGSLMTMLVSCKKLTEIKFSDSFFQAVPFVASLPNFISLKILNLEGQQFPDEETSEKFAYILGSLSNLEELILPTGDGIYRVAKLIIQQCQQLHCLRVLSFFKTLNDDSVVEIAKVAISGGFQKLENLKLSINHKITEEGYRNFFQALDNMPNLQELDISRHFTECIKAQATTVKSLSQCVLRLPRLIRLNMLSWLLDADDIALLNVMKERHPQSKYLTILQKWILPFSPIIQK
Turning to B1, the figures for the binding result in experiment [1] and in experiment [2] were “binds” and “binds weakly”, respectively.
